Assay [1] has as its target T1, HA-SMYD3 (UniProt Q9H7B4).
T1 sequence: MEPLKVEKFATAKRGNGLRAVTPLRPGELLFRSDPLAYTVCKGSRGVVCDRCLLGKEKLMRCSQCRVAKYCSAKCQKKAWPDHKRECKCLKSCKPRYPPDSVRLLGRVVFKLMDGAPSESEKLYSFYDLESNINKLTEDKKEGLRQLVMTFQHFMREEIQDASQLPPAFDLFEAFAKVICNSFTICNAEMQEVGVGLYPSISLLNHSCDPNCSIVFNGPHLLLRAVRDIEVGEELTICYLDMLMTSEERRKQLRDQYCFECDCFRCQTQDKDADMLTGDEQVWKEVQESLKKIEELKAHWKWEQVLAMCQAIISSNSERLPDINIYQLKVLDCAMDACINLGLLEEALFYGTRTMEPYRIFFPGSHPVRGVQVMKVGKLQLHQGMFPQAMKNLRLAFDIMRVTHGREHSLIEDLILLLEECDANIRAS
The experiment in a line: co-IP; HEK293T cells co-transfected with the plasmids for 24 h; anti-HA antibody-conjugated agarose beads for immunoprecipitation, immunoblotting; normoxia stated for Fig. 5C. (Immunoblotting shows a protein as a band on a membrane.)

Chains of the proteins cited; added tags and fusions are not shown.
UniProt Q61221: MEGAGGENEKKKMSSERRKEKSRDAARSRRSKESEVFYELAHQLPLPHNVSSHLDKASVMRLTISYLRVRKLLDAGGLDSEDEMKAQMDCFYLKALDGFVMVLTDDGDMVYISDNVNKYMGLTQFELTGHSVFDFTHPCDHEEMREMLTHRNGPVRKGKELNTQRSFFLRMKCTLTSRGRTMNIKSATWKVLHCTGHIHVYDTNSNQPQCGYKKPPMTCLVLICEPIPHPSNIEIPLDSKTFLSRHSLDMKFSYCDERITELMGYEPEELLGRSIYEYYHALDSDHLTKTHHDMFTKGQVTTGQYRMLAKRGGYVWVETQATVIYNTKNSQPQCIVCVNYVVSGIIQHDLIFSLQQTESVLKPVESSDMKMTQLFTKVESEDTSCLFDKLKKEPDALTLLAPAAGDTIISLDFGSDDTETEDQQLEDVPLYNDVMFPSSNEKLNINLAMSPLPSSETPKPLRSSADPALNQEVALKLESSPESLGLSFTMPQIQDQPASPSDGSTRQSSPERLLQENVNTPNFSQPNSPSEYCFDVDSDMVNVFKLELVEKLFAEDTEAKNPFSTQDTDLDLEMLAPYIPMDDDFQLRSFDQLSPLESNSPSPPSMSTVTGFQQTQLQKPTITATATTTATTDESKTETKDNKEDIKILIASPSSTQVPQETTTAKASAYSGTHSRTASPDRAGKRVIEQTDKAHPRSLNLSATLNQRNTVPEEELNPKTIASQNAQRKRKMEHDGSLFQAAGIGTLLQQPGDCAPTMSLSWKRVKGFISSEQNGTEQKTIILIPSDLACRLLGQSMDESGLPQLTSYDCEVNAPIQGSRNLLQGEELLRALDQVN
UniProt Q16665: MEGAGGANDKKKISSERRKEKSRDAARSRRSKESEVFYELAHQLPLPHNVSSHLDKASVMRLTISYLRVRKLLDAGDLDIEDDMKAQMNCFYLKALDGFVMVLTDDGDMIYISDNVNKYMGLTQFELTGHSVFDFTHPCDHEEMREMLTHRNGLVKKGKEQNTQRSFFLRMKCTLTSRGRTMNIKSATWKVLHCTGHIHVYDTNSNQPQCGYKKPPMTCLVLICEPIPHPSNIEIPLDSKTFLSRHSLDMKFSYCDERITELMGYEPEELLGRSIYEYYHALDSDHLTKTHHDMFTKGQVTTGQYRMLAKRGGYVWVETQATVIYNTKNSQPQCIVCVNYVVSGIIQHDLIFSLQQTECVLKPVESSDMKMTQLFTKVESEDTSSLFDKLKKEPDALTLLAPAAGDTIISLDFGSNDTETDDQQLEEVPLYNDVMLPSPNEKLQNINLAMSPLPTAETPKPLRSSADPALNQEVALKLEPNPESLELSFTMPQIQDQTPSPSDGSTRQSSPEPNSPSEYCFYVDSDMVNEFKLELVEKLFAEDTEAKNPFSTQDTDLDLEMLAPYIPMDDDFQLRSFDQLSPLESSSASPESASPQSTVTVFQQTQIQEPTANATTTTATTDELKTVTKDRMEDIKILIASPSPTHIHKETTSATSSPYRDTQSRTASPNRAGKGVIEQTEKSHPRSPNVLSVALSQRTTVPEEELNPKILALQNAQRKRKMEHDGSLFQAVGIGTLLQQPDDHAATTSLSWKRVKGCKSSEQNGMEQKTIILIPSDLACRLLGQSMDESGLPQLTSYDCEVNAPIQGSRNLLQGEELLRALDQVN

The target in assay [2] is T2, HA-SMYD3-F183A (UniProt Q9H7B4).
T2 sequence: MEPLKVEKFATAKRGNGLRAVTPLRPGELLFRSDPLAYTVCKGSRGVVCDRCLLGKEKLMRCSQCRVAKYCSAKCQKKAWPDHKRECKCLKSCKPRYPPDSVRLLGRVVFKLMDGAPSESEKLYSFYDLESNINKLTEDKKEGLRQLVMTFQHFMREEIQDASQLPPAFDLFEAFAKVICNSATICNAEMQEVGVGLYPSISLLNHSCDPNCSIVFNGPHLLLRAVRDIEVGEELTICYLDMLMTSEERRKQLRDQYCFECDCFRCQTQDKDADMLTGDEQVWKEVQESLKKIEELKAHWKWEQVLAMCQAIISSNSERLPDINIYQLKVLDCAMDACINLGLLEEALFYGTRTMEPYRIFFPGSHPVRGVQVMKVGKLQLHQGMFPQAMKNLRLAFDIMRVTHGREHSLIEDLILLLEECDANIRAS
Described as above.

Assay [3] has as its target T1, HA-SMYD3. The assay is described as follows: co-IP; semiendogenous: ectopic HA-tagged SMYD3 with endogenous HIF1α, cells under hypoxia; cell line and precipitating antibody not shown.
For assay [4], the target named is T2, HA-SMYD3-F183A. The assay is described as above.
Assay [5] addresses T3, endogenous SMYD3 in HEK293T cells (human (endogenous in HEK293T)) (UniProt Q9H7B4).
T3 sequence: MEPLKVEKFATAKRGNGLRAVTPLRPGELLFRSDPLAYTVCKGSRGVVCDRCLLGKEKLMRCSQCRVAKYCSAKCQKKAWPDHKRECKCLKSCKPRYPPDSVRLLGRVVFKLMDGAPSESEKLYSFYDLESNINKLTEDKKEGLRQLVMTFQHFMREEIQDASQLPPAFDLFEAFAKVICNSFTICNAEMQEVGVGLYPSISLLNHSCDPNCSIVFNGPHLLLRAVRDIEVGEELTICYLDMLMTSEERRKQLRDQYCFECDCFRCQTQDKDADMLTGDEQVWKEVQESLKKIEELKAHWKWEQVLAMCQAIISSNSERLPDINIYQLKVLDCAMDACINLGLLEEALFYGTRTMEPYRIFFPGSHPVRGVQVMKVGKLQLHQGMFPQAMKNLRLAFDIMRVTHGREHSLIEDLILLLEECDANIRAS
The assay is described as follows: co-IP; endogenous proteins in HEK293T cells under hypoxia; precipitating antibody not shown.

For assay [6], the target named is endogenous Hif1α in MEF cells (mouse (endogenous in MEF)) (UniProt Q61221). The experiment in a line: co-IP; endogenous proteins in Smyd3+/+ MEF cells (Smyd3-/- MEF cells as control) under hypoxia for 4 h; anti-HIF1α antibody for immunoprecipitation.

These are yes or no findings as the source states them, for the method shown. Binding seen in cells or lysates may run through a third protein. Some results given as binding are weak or reduced against the parent protein; the word gives no strength. For part of these data: Sequences can lack the tags named with a protein.

Regarding Myc-HIF1α (from UniProt Q16665 1-826), the binding result in assay [1] and in assay [2] was “binds” in each case.

Regarding “endogenous HIF1α (semiendogenous co-immunoprecipitation, under hypoxia) (from UniProt Q16665 1-826)”, the binding result in assay [3] and in assay [4] was “binds” in each case.

As for “endogenous HIF1α in HEK293T cells (from UniProt Q16665 1-826)”, the binding result in assay [5] was “binds”.

B1: endogenous Smyd3 in MEF cells (protein, UniProt Q9CWR2 1-428)
chain: MEALKVEKFTTANRGNGLRAVAPLRPGELLFRSDPLAYTVCKGSRGVVCDRCLLGKEKLMRCSQCRIAKYCSAKCQKKAWPDHRRECSCLKSCKPRYPPDSVRLLGRVIVKLMDEKPSESEKLYSFYDLESNISKLTEDKKEGLRQLAMTFQHFMREEIQDASQLPPSFDLFEAFAKVICNSFTICNAEMQEVGVGLYPSMSLLNHSCDPNCSIVFNGPHLLLRAVREIEAGEELTICYLDMLMTSEERRKQLRDQYCFECDCIRCQTQDKDADMLTGDEQIWKEVQESLKKIEELKAHWKWEQVLALCQAIINSNSNRLPDINIYQLKVLDCAMDACINLGMLEEALFYAMRTMEPYRIFFPGSHPVRGVQVMKVGKLQLHQGMFPQAMKNLRLAFDIMKVTHGREHSLIEDLILLLEECDANIRAS
Consider B1, for which the binding result in assay [6] is recorded as “binds”.

(Values after PMC9692045.)
